Results are given in words; binding and its absence hold for the method and conditions named. In cells and extracts the contact can be indirect. These calls come from enrichment with a bait or labelling near it, and not all partners need be listed. A no says only that the protein was not detected with the bait.
Target: GFP-tagged ZNF384 (isoform 2, containing 6 C2H2 motifs) (human)
Test: affinity purification with mass spectrometry; GFP-Trap pull-down of GFP-ZNF384 versus GFP-NLS from U2OS Flp-In/T-Rex lysate (EBC buffer: 50 mM Tris pH 7.5, 150 mM NaCl, 0.5% NP-40, 2 mM MgCl2, benzonase), label-free MS

B1: endogenous APLF (protein, UniProt Q8IW19 1-511)
chain: MSGGFELQPRDGGPRVALAPGETVIGRGPLLGITDKRVSRRHAILEVAGGQLRIKPIHTNPCFYQSSEKSQLLPLKPNLWCYLNPGDSFSLLVDKYIFRILSIPSEVEMQCTLRNSQVLDEDNILNETPKSPVINLPHETTGASQLEGSTEIAKTQMTPTNSVSFLGENRDCNKQQPILAERKRILPTWMLAEHLSDQNLSVPAISGGNVIQGSGKEEICKDKSQLNTTQQGRRQLISSGSSENTSAEQDTGEECKNTDQEESTISSKEMPQSFSAITLSNTEMNNIKTNAQRNKLPIEELGKVSKHKIATKRTPHKEDEAMSCSENCSSAQGDSLQDESQGSHSESSSNPSNPETLHAKATDSVLQGSEGNKVKRTSCMYGANCYRKNPVHFQHFSHPGDSDYGGVQIVGQDETDDRPECPYGPSCYRKNPQHKIEYRHNTLPVRNVLDEDNDNVGQPNEYDLNDSFLDDEEEDYEPTDEDSDWEPGKEDEEKEDVEELLKEAKRFMKRK
- binding: no binding

Reference: article PMC8589989
